Data reported in patent US20100249383A1, “Novel Ligand Involved In The Transmigration Of Leukocytes Across the Endothelium and Uses Therefor” (The Regents of The University of California and The Burnham …, priority 2001, published 2010).
Results are given in words; binding and its absence hold for the method and conditions named. Binding calls can cover weak binding; strength is not graded here.

Chains of the proteins cited; added tags and fusions are not shown. Lines headed by an entry give the natural chain unless they say otherwise; changes in a name come on top. Residues count along the entry.
UniProt Q28173: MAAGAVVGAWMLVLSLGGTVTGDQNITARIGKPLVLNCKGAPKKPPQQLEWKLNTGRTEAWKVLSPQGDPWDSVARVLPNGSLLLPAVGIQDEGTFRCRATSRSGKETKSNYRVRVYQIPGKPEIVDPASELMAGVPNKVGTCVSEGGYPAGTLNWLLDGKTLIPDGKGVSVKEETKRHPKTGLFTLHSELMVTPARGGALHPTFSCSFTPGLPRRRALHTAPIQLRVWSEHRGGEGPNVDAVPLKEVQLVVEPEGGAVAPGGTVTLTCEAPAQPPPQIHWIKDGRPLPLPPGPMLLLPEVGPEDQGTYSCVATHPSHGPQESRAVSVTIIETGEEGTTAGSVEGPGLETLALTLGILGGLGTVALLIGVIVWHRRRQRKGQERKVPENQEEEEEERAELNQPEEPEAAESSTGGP
UniProt P63159, residues 2-215: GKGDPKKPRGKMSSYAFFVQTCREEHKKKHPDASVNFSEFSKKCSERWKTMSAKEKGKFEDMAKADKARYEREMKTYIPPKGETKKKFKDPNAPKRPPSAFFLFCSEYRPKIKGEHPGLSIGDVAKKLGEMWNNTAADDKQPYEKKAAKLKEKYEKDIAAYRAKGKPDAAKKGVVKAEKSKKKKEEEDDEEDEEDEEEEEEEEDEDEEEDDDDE

Molecular target: RAGE from bovine lung (native, purified/immunoprecipitated) (bovine) (UniProt Q28173)
Assay: 125I amphoterin binding to immobilized RAGE (figure legend)

For “amphoterin (baculovirus expressed rat amphoterin) (from UniProt P63159 2-215) (ligand)”, the binding was “binds”.
